Results are given in words; binding and its absence hold for the method and conditions named. Binding seen in cells or lysates may run through a third protein. Binding calls can cover weak binding; strength is not graded here.
Target: T1, endogenous RNF12 (human (endogenous in MDA-MB-231)) (UniProt Q9NVW2)
T1 sequence: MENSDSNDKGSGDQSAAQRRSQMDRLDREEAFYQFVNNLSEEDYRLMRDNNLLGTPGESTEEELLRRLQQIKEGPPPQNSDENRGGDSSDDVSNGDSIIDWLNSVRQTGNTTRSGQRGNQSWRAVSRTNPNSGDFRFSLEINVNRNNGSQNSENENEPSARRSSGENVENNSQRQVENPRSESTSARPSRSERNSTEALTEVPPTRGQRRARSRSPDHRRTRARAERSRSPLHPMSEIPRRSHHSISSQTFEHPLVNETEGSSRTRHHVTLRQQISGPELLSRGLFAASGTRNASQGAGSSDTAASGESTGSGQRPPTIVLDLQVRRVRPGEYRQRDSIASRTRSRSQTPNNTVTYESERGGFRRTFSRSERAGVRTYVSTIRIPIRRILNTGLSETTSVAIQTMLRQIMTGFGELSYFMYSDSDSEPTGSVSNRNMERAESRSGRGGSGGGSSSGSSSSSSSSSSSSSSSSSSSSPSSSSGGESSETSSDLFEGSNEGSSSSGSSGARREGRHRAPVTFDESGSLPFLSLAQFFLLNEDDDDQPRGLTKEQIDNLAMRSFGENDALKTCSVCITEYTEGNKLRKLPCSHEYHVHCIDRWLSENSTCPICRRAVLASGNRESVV
Assay: co-IP; endogenous proteins, MDA-MB-231 cell lysates; immunoprecipitation with RNF12 antibody, immunoblotting with an AKT antibody

## endogenous AKT (human (endogenous in MDA-MB-231)) (enzyme)
  binding: binds

— article PMC8748510
